From PMC10884030
Where a chain is given by its changes, count along the chain named. Numbers in names are those of the source. No constants are given. Whether binding was seen depends on the method and setting. Binding seen in cells or lysates may run through a third protein. Some entries that bind do so weakly or less than the wild type.

T1: THOC5 (human (endogenous in iPSCs)) (UniProt Q13769)
T1 sequence: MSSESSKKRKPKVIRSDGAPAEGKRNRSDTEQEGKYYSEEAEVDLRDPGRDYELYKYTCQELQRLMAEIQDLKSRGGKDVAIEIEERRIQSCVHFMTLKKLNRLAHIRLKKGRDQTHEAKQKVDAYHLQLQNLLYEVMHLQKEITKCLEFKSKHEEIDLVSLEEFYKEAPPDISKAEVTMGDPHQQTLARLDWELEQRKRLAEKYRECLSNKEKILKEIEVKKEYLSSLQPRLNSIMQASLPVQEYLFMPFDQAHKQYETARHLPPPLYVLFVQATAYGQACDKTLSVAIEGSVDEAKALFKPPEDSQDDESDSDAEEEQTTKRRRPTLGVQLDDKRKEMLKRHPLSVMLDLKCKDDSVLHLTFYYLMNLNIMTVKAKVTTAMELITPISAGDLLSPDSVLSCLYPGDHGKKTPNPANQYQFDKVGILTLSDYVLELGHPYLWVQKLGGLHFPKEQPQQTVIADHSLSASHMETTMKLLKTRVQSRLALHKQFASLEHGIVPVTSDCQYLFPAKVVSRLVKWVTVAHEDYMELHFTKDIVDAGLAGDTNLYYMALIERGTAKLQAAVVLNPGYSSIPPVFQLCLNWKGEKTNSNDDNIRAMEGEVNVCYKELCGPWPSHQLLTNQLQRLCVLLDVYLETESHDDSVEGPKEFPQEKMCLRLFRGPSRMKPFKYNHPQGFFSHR

B1: THOC6 (protein, UniProt Q86W42-1 1-341)
chain: MERAVPLAVPLGQTEVFQALQRLHMTIFSQSVSPCGKFLAAGNNYGQIAIFSLSSALSSEAKEESKKPVVTFQAHDGPVYSMVSTDRHLLSAGDGEVKAWLWAEMLKKGCKELWRRQPPYRTSLEVPEINALLLVPKENSLILAGGDCQLHTMDLETGTFTRVLRGHTDYIHCLALRERSPEVLSGGEDGAVRLWDLRTAKEVQTIEVYKHEECSRPHNGRWIGCLATDSDWMVCGGGPALTLWHLRSSTPTTIFPIRAPQKHVTFYQDLILSAGQGRCVNQWQLSGELKAQVPGSSPGLLSLSLNQQPAAPECKVLTAAGNSCRVDVFTNLGYRAFSLSF
B2: THOC1 (protein, UniProt Q96FV9 1-657)
chain: MSPTPPLFSLPEARTRFTKSTREALNNKNIKPLLSTFSQVPGSENEKKCTLDQAFRGILEEEIINHSSCENVLAIISLAIGGVTEGICTASTPFVLLGDVLDCLPLDQCDTIFTFVEKNVATWKSNTFYSAGKNYLLRMCNDLLRRLSKSQNTVFCGRIQLFLARLFPLSEKSGLNLQSQFNLENVTVFNTNEQESTLGQKHTEDREEGMDVEEGEMGDEEAPTTCSIPIDYNLYRKFWSLQDYFRNPVQCYEKISWKTFLKYSEEVLAVFKSYKLDDTQASRKKMEELKTGGEHVYFAKFLTSEKLMDLQLSDSNFRRHILLQYLILFQYLKGQVKFKSSNYVLTDEQSLWIEDTTKSVYQLLSENPPDGERFSKMVEHILNTEENWNSWKNEGCPSFVKERTSDTKPTRIIRKRTAPEDFLGKGPTKKILMGNEELTRLWNLCPDNMEACKSETREHMPTLEEFFEEAIEQADPENMVENEYKAVNNSNYGWRALRLLARRSPHFFQPTNQQFKSLPEYLENMVIKLAKELPPPSEEIKTGEDEDEEDNDALLKENESPDVRRDKPVTGEQIEVFANKLGEQWKILAPYLEMKDSEIRQIECDSEDMKMRAKQLLVAWQDQEGVHATPENLINALNKSGLSDLAESLTNDNETNS
B3: THOC6 p.E188K (protein, UniProt Q86W42-1 1-341)
chain: B1 chain with E188K

How the values were obtained:
[1] = molecular target: T1, THOC5 (human (endogenous in iPSCs)); assay: co-IP; anti-THOC5 on Dynabeads Protein G, incubated with iPSC lysate (35 ug of protein) overnight at 4 °C; blots of the precipitate; unaffected control, THOC6^E188K/+ and THOC6^E188K/E188K iPSCs
[2] = molecular target: T1, THOC5 (human (endogenous in iPSCs)); assay: co-IP; as a1, lysate of affected THOC6^E188K/E188K iPSCs only (anti-THOC5 on Dynabeads Protein G, overnight at 4 °C)

Binder	binding [1]	binding [2]
B1	binds	
B2	binds	
B3		no binding
